The supplement of paper PMC10849652
This is one part of the list.

The chains behind the UniProt entries cited, without tags or fusion partners. Where a name states a change or a piece, a line headed by the entry shows the natural chain unless it says otherwise.
UniProt Q8N9Z2: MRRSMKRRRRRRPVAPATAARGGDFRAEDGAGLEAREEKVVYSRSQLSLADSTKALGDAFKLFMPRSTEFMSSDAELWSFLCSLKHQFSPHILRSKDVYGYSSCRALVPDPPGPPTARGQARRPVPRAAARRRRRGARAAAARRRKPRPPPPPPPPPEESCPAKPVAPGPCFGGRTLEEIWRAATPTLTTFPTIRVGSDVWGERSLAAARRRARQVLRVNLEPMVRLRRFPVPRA
UniProt P24385, whole entry, looked up: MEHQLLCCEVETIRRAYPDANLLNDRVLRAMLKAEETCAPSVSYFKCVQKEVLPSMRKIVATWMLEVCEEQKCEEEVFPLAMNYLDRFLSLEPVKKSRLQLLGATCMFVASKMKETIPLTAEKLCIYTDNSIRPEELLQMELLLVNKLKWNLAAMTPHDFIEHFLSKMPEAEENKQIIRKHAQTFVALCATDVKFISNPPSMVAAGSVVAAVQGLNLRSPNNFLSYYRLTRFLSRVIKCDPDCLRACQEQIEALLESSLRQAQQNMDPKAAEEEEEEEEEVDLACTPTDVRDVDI
UniProt Q96S94: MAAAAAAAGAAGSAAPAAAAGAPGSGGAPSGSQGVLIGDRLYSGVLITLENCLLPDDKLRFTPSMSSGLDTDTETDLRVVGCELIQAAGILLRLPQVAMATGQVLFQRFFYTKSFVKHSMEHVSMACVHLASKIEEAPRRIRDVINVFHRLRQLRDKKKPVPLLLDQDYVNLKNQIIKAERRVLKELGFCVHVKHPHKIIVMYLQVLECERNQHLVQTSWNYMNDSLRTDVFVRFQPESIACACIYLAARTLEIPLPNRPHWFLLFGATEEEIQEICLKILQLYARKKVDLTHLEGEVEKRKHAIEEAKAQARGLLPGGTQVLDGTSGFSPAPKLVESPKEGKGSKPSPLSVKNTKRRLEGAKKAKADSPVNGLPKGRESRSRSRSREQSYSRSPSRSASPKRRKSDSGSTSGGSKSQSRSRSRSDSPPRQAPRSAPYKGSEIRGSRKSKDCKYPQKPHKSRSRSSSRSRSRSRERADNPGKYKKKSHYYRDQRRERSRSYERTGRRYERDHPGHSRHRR
UniProt P27701: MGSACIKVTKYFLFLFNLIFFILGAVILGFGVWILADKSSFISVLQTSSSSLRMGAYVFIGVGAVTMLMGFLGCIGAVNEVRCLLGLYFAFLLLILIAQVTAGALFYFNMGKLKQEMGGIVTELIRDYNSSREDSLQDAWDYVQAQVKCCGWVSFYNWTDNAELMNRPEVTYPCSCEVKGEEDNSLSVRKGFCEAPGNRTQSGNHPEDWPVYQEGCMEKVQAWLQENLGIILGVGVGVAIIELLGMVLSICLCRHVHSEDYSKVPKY
UniProt P15529: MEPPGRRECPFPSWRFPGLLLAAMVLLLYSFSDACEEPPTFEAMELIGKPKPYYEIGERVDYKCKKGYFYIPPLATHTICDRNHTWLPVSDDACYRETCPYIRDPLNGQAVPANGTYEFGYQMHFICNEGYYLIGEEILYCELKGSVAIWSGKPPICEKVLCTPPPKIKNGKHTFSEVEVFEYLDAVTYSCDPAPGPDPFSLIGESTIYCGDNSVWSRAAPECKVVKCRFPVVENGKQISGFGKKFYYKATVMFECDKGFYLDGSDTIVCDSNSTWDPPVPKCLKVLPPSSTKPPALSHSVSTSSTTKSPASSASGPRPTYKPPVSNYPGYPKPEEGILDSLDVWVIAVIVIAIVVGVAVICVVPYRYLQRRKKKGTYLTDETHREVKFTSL
UniProt P30281: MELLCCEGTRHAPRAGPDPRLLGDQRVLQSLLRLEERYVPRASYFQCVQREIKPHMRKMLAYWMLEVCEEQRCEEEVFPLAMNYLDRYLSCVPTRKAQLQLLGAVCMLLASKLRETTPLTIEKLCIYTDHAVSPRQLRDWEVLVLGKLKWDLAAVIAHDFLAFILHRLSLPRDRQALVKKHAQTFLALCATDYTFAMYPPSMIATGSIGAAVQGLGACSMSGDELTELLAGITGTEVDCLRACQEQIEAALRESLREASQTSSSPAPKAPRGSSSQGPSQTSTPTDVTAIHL
UniProt Q9BUN5: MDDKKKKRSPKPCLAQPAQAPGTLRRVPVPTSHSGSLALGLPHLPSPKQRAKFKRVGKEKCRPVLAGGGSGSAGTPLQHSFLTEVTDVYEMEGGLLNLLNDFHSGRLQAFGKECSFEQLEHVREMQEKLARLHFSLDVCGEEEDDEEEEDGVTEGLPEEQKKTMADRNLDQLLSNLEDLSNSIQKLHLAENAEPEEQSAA
UniProt Q04900: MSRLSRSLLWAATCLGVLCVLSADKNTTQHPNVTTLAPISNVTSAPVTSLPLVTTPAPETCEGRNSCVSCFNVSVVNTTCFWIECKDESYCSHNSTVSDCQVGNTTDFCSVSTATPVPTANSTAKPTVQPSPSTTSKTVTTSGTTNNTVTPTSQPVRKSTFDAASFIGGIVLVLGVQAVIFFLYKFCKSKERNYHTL
UniProt Q13951, whole entry, looked up: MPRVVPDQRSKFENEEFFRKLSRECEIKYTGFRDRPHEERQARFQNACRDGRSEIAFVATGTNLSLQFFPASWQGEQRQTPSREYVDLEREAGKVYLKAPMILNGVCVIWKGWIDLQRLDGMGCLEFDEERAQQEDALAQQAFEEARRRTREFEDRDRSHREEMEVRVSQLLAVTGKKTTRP
UniProt A2RUB6: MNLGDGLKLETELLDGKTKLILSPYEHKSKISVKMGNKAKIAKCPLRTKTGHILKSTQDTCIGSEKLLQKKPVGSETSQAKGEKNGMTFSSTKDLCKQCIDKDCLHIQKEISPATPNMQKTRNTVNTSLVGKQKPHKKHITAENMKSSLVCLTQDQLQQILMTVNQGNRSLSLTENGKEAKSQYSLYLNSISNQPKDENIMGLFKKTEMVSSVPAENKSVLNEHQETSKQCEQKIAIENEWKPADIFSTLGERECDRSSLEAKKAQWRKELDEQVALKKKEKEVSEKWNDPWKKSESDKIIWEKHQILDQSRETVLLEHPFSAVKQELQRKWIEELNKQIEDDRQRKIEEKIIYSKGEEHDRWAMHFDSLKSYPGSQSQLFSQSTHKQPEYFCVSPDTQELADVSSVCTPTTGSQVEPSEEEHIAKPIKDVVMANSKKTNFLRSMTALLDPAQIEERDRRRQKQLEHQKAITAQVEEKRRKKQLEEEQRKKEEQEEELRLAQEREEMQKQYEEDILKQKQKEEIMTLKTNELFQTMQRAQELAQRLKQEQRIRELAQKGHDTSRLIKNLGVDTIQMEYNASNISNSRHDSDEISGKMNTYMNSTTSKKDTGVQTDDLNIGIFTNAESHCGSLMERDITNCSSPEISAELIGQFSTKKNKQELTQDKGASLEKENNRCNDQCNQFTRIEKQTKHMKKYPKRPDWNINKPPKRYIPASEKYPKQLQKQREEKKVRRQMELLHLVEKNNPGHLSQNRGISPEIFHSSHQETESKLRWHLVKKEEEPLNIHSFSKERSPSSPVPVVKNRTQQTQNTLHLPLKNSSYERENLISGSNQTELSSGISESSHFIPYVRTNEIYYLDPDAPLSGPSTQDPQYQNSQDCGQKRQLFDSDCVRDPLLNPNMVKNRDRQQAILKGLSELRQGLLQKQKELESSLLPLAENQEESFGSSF
UniProt Q6YHK3: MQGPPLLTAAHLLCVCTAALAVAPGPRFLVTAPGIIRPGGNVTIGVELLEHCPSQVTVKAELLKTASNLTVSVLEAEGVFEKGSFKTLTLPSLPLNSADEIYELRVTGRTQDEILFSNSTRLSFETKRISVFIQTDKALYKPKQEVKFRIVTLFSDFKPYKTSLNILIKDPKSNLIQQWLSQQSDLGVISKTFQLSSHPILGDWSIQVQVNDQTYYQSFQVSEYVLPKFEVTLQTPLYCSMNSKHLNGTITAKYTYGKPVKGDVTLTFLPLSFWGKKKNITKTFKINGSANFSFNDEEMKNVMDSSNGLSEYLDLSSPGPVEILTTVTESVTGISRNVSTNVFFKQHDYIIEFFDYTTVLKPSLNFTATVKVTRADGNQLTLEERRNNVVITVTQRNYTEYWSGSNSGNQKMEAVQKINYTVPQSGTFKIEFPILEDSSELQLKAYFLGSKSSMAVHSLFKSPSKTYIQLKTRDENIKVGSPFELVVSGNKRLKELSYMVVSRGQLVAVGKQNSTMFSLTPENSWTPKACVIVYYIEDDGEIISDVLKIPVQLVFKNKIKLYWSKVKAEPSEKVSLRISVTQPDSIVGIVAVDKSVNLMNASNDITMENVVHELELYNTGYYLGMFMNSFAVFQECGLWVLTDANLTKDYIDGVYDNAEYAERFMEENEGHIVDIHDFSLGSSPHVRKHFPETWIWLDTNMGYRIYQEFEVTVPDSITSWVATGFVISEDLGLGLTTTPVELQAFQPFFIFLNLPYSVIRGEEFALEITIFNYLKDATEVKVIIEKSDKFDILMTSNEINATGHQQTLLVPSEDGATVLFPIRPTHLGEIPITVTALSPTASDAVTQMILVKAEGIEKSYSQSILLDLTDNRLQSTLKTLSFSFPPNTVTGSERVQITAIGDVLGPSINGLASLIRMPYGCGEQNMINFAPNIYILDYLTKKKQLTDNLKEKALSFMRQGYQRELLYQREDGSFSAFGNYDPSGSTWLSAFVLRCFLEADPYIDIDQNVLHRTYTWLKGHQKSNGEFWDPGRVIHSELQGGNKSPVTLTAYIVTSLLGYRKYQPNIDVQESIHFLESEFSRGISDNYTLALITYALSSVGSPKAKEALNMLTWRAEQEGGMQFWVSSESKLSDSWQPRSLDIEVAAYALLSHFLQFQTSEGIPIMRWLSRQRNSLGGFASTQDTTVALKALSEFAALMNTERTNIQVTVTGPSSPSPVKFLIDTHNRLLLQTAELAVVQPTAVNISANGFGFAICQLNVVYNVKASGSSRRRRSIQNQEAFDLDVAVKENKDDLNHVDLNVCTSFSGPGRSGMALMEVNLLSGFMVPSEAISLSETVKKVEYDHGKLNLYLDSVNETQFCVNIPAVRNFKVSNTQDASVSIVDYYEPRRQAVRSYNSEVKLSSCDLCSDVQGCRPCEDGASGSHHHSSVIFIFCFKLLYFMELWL
UniProt P24864, whole entry, looked up: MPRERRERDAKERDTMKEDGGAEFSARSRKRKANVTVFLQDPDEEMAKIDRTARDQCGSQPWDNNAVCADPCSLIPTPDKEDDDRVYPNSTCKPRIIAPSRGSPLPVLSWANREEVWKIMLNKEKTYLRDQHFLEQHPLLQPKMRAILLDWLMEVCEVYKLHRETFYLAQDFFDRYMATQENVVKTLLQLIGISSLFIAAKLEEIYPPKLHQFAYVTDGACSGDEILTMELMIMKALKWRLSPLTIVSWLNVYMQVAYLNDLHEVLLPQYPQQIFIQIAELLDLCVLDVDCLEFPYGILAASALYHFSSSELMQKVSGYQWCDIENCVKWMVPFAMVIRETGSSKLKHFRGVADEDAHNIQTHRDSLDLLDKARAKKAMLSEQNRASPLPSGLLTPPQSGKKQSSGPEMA
UniProt Q9HC52: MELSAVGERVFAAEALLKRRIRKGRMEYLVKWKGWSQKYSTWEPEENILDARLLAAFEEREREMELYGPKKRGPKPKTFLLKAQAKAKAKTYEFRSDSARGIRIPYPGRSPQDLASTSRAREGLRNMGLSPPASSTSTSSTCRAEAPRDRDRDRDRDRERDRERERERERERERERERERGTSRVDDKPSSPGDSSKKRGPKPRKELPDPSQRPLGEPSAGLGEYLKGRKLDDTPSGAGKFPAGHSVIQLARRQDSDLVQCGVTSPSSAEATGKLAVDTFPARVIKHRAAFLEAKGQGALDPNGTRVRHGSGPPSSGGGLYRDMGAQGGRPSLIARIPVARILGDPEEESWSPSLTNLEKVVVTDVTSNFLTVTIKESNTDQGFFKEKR
UniProt P30307: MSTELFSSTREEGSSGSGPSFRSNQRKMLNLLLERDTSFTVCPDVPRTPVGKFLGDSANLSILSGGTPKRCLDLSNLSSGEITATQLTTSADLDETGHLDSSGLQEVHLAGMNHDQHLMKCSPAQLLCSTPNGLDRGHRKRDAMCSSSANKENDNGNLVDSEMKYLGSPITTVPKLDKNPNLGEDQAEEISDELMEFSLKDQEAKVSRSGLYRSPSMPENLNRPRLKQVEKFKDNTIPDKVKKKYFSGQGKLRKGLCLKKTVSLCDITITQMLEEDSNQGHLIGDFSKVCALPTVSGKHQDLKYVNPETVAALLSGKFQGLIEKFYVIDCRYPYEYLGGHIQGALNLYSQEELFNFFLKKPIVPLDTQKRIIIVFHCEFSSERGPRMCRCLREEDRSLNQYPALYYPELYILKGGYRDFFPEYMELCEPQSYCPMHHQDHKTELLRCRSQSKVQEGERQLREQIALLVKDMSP
UniProt P11049: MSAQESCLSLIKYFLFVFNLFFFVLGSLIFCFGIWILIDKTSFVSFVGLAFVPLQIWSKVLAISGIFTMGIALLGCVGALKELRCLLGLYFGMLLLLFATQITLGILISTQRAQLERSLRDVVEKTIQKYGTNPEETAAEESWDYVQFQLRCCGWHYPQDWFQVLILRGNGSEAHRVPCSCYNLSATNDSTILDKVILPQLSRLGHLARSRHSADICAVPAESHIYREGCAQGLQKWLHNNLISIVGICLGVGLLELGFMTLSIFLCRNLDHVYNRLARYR

Assays:
Assay in all cases: log2 fold change, soluble protein after heating vs DMSO (PISA); higher = thermal stabilisation; K562 cells, 10 uM, 30 min; active = over 0.2 and 3.5 SD of the protein, either way, in both replicates (recomputed)
filanesib = compound: CON(C)C(=O)N1N=C(c2cc(F)ccc2F)S[C@@]1(CCCN)c1ccccc1 [filanesib]
How it was run: (§1)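 Quantification of soluble protein used TMTpro 16plex LC-MS/MS, with channel sums equalised. Samples were the supernatant after 21,000xg for 90 min of pooled aliquots from K562 cells (2×10^6 cells/mL) treated with 10 μM compound for 30 min, heated for 3 min over 48°C-58°C, and extracted in PBS with 0.5% NP-40 at 4°C. Values, from duplicates, describe thermal stability against control samples on a log2 fold-change scale.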

alisertib = compound: COc1cc(Nc2ncc3c(n2)-c2ccc(Cl)cc2C(c2c(F)cccc2OC)=NC3)ccc1C(=O)O [alisertib]
How it was run: as §1

gefitinib = compound: COc1cc2ncnc(Nc3ccc(F)c(Cl)c3)c2cc1OCCCN1CCOCC1 [gefitinib]
How it was run: as §1

[1] = compound: COc1cccc2cc(-c3nc([C@H]4CC[C@H](C(=O)O)CC4)n4ncnc(N)c34)[nH]c12
How it was run: as §1

pictilisib = compound: CS(=O)(=O)N1CCN(Cc2cc3nc(-c4cccc5[nH]ncc45)nc(N4CCOCC4)c3s2)CC1 [pictilisib]
How it was run: as §1

[2] = compound: CS(=O)(=O)c1ccc(-c2cnc(N)c(C(=O)Nc3ccccc3)n2)cc1
How it was run: as §1

duvelisib = compound: C[C@H](Nc1ncnc2nc[nH]c12)c1cc2cccc(Cl)c2c(=O)n1-c1ccccc1 [duvelisib]
How it was run: as §1

gandotinib = compound: Cc1cc(Nc2cc(CN3CCOCC3)c3nc(C)c(Cc4ccc(Cl)cc4F)n3n2)n[nH]1 [gandotinib]
How it was run: as §1

[3] = compound: Cc1cc(SCc2sc(-c3ccc(C(F)(F)F)cc3)nc2C)ccc1OCC(=O)O
How it was run: as §1

zotarolimus = compound: CO[C@H]1C[C@@H]2CC[C@@H](C)[C@@](O)(O2)C(=O)C(=O)N2CCCC[C@H]2C(=O)O[C@H]([C@H](C)C[C@@H]2CC[C@H](n3cnnn3)[C@H](OC)C2)CC(=O)[C@H](C)/C=C(\C)[C@@H](O)[C@@H](OC)C(=O)[C@H](C)C[C@H](C)/C=C/C=C/C=C/1C [zotarolimus]
How it was run: as §1

[4] = compound: C[C@@H]1COCCN1C2=NC(=NC(=C2)C3(CC3)S(=O)(=O)C)C4=C5C=CNC5=CC=C4
How it was run: as §1

[5] = compound: C[C@H](C1=CC=C(C=C1)C(=O)NC2=C3C=CNC3=NC=C2)N
How it was run: as §1

tozasertib = compound: Cc1cc(Nc2cc(N3CCN(C)CC3)nc(Sc3ccc(NC(=O)C4CC4)cc3)n2)n[nH]1 [tozasertib]
How it was run: as §1

ispinesib = compound: Cc1ccc(C(=O)N(CCCN)[C@@H](c2nc3cc(Cl)ccc3c(=O)n2Cc2ccccc2)C(C)C)cc1 [ispinesib]
How it was run: as §1

[6] = compound: COc1cc2nc(-c3cc(F)ccc3O)nc(N[C@@H]3CNC[C@H]3C(C)(C)O)c2cc1OC
How it was run: as §1

lapatinib = compound: CS(=O)(=O)CCNCc1ccc(-c2ccc3ncnc(Nc4ccc(OCc5cccc(F)c5)c(Cl)c4)c3c2)o1 [lapatinib]
How it was run: as §1

idasanutlin = compound: COc1cc(C(=O)O)ccc1NC(=O)[C@@H]1N[C@@H](CC(C)(C)C)[C@](C#N)(c2ccc(Cl)cc2F)[C@H]1c1cccc(Cl)c1F [idasanutlin]
How it was run: as §1

Measured: log2 fold change

CCDC186 (UniProt Q7Z3E2)
inactive: filanesib 0.043 | alisertib -0.073 | gefitinib -0.06 | [1] -0.241 | pictilisib 0.125 | [2] 0.002 | duvelisib 0.009 | gandotinib 0.074 | [3] -0.057

CCDC71L isoform 2 (UniProt Q8N9Z2)
inactive: filanesib 0.135 | zotarolimus 0.04 | [2] 0.015 | [4] 0.15 | [5] 0.003 | tozasertib 0.032

CCND1 (UniProt P24385)
inactive: filanesib 0.079 | [2] 0.146 | ispinesib -0.124

CBFA2T2 isoform 4 (UniProt O43439)
inactive: pictilisib 0.037 | gandotinib 0.047

CDC27 (UniProt G5EA36)
inactive: zotarolimus -0.019 | [6] -0.183 | lapatinib 0.178 | [4] -0.131 | [5] 0.418 | tozasertib -0.013 | ispinesib 0.144

CCDC85B (UniProt Q15834)
inactive: filanesib 0.123 | zotarolimus 0.081 | idasanutlin -0.049 | alisertib 0.041 | [6] -0.064 | [1] -0.021 | lapatinib 0.172 | pictilisib -0.021 | [2] -0.239 | [5] 0.378 | duvelisib 0.164 | gandotinib -0.157 | tozasertib -0.059 | [3] 0.046

CCNL2 (UniProt Q96S94)
inactive: filanesib -0.421 | gefitinib 0.019 | [2] 0.049 | [4] 0.273

CD82 (UniProt P27701)
inactive: filanesib -0.016 | alisertib -0.125 | gefitinib -0.218 | [1] 0.056 | pictilisib 0.18 | [2] -0.037 | [4] -0.136 | gandotinib 0.069 | ispinesib 0.195

CD46 (UniProt P15529)
inactive: filanesib 0.103 | [2] -0.088 | duvelisib 0.097 | [3] -0.195

CCND3 (UniProt P30281)
inactive: zotarolimus -0.035 | idasanutlin -0.036 | alisertib -0.043 | [6] -0.276 | [1] 0.012 | lapatinib 0.083 | pictilisib 0.03 | [4] -0.271 | [5] 0.096 | gandotinib -0.027 | [3] 0.058 | ispinesib -0.116

CAV1 (UniProt F8WDM7)
inactive: zotarolimus -0.139 | [5] 0.51

CCDC28B (UniProt Q9BUN5)
inactive: filanesib 0.139 | idasanutlin 0.012 | alisertib 0.159 | [6] 0.166 | [1] 0.033 | lapatinib 0.008 | pictilisib 0.364 | [2] -0.158 | gandotinib -0.117 | tozasertib 0.023

CD164 (UniProt Q04900)
inactive: filanesib 0.192 | zotarolimus -0.202 | idasanutlin 0.125 | alisertib -0.074 | gefitinib -0.157 | [1] 0.1 | pictilisib -0.082 | [2] -0.229 | [4] -0.512 | [5] -0.189 | gandotinib -0.05 | ispinesib 0.033

CCDC187, A0A1W2PQX5
inactive: idasanutlin -0.051 | gefitinib -0.312 | pictilisib 0.191 | [4] -0.042 | gandotinib -0.352 | ispinesib 0.274

CDC37 (UniProt K7EKQ2)
inactive: filanesib -0.077 | [2] -0.182 | [4] 0.07

CCND2 (UniProt P30279)
inactive: zotarolimus 0.002 | [5] -0.048

CBX3 (UniProt B8ZZ43)
inactive: duvelisib 0.207 | [3] -0.315

CBFB (UniProt Q13951)
inactive: zotarolimus -0.012 | idasanutlin -0.031 | alisertib -0.011 | gefitinib -0.109 | [1] 0.15 | [5] 0.015 | duvelisib 0.202 | tozasertib 0.088 | [3] 0.071 | ispinesib 0.036

CCDC66 (UniProt A2RUB6)
inactive: alisertib 0.097 | gefitinib -0.213 | [1] -0.065 | pictilisib 0.019 | [4] 0.026 | gandotinib -0.004

CD109 (UniProt Q6YHK3)
inactive: pictilisib 0.201 | duvelisib -0.154 | gandotinib -0.331 | [3] -0.369

CCNE1 (UniProt P24864)
inactive: idasanutlin -0.126 | [6] 0.128 | lapatinib 0.058 | pictilisib -0.192 | [4] -0.273 | duvelisib 0.204 | gandotinib 0.004 | tozasertib 0.133 | [3] -0.097 | ispinesib 0.102

CBX8 (UniProt Q9HC52)
inactive: zotarolimus 0.265 | [5] 0.291 | duvelisib 0.093 | [3] 0.175 | ispinesib 0.028

2 records picked at random from those above, as already listed:
CCNE1 (UniProt P24864)
inactive: idasanutlin -0.126 | [6] 0.128 | lapatinib 0.058 | pictilisib -0.192 | [4] -0.273 | duvelisib 0.204 | gandotinib 0.004 | tozasertib 0.133 | [3] -0.097 | ispinesib 0.102

CCDC66 (UniProt A2RUB6)
inactive: alisertib 0.097 | gefitinib -0.213 | [1] -0.065 | pictilisib 0.019 | [4] 0.026 | gandotinib -0.004

Remaining list, next part

CDC25C (UniProt P30307)
inactive: zotarolimus 0.025 | idasanutlin 0.093 | alisertib -0.06 | gefitinib 0.069 | [1] 0.136 | [4] 0.091 | [5] 0.071 | duvelisib -0.045 | tozasertib -0.056 | [3] -0.049

CD84 (UniProt Q9UIB8)
inactive: filanesib -0.009 | zotarolimus -0.194 | idasanutlin -0.082 | [2] 0.049 | [4] -0.201 | [5] -0.149 | [3] 0.056

CD37 (UniProt P11049)
inactive: idasanutlin 0.023 | [6] 0.059 | gefitinib 0.089 | lapatinib -0.056 | pictilisib 0.084 | duvelisib 0.058 | gandotinib -0.114 | tozasertib -0.093 | [3] 0.075
